In patent publication US10662182B2, “Microbiocidal thiazole derivatives” (SYNGENTA PARTICIPATIONS AG, priority 2016, dated 2020):
Some results were stated once for a whole list of compounds, not compound by compound.

Tests used:
Pyrenophora teres = Pyrenophora teres / barley / leaf disc preventative (net blotch); assay type: in vivo; settings: 200 ppm of the formulation; barley leaf segments cv. Hasso; compared to untreated checks
Method: Pyrenophora teres/Barley/Leaf Disc Preventative (Net Blotch) Barley leaf segments cv. Hasso are placed on agar in a multiwell plate (24-well format) and sprayed with the test compound formulated with DMSO and Tween20 and diluted in water. The leaf segments are inoculated with a spore suspension of the fungus 2 days after application. The inoculated leaf segments are incubated at 20° C. and 65% rh under a light regime of 12 h light/12 h darkness in a climate cabinet and the activity of a compound is assessed as disease control compared to untreated when an appropriate level of disease damage appears in untreated check leaf segments (5 to 7 days after application).

[1] = tested on: Botrvotinia fuckeliana (Botrvtis cinerea); test: Botryotinia fuckeliana / liquid culture (gray mould); assay type: cell-based; settings: 200 ppm in the formulation, inhibition of growth determined photometrically, compared to untreated checks
Method: Botrvotinia fuckeliana (Botrvtis cinerea)/Liquid Culture (Gray Mould) Conidia of the fungus from cryogenic storage are directly mixed into nutrient broth (Vogels broth). After placing a (DMSO) solution of test compound into a microtiter plate (96-well format), the nutrient broth containing the fungal spores is added. The test plates are incubated at 24° C. and the inhibition of growth is determined photometrically 3-4 days after application.

Gaeumannomyces graminis = Gaeumannomyces graminis / liquid culture (take-all of cereals); assay type: cell-based; settings: 200 ppm in the formulation, inhibition of growth determined photometrically, compared to untreated control
Method: (§1) Gaeumannomyces graminis/Liquid Culture (Take-All of Cereals) Mycelial fragments of the fungus from cryogenic storage were directly mixed into nutrient broth (PDB potato dextrose broth). After placing a (DMSO) solution of test compound into a microtiter plate (96-well format), the nutrient broth containing the fungal spores is added. The test plates are incubated at 24° C. and the inhibition of growth is determined photometrically 4-5 days after application.

[2] = tested on: Glomerella lacenarium (Colletotrichum lacenarium); test: Glomerella lagenarium / liquid culture (anthracnose); assay type: cell-based; settings: 200 ppm in the formulation, inhibition of growth measured photometrically, compared to untreated checks
Method: as §1, with “Glomerella lacenarium (Colletotrichum lacenarium)/Liquid” for “Gaeumannomyces graminis/Liquid”, “(Anthracnose) Conidia” for “(Take-All of Cereals) Mycelial fragments”, “are” for “were”, “measured” for “determined”, “3 to 4” for “4-5”

[3] = tested on: Monocraphella nivalis (Microdochium nivale); test: Monographella nivalis / liquid culture (foot rot cereals); assay type: cell-based; settings: 200 ppm in the formulation, inhibition of growth determined photometrically, compared to untreated checks
Method: as §1, with “Monocraphella nivalis (Microdochium nivale)/Liquid” for “Gaeumannomyces graminis/Liquid”, “(Foot Rot” for “(Take-All of”, “Conidia” for “Mycelial fragments”, “are” for “were”

[4] = tested on: Puccinia recondita f. Sp. Tritici; test: Puccinia recondita f. sp. tritici / wheat / leaf disc preventative (brown rust); assay type: in vivo; settings: 200 ppm in the formulation; wheat leaf segments cv. Kanzler; compared to untreated checks
[5] = tested on: Blumeria graminis f. Sp. Tritici (Erysiphe graminis f. Sp. Tritici); test: Blumeria graminis f. sp. tritici / wheat / leaf disc preventative (powdery mildew on wheat); assay type: in vivo; settings: 200 ppm in the formulation; wheat leaf segments cv. Kanzler; compared to untreated checks
Source text: Blumeria graminis f. Sp. Tritici (Erysiphe graminis f. Sp. Tritici)/Wheat/Leaf Disc Preventative (Powdery Mildew on Wheat) Wheat leaf segments cv. Kanzler are placed on agar in a multiwell plate (24-well format) and sprayed with the test compound formulated with DMSO and Tween20 and diluted in water. The leaf disks are inoculated by shaking powdery mildew infected plants above the test plates 1 day after application.

[6] = tested on: Mycosphaerella arachidis (Cercospora arachidicola); test: Mycosphaerella arachidis / liquid culture (early leaf spot); assay type: cell-based; settings: 200 ppm in the formulation, inhibition of growth determined photometrically, compared to untreated checks
Method: as §1, with “Mycosphaerella arachidis (Cercospora arachidicola)/Liquid” for “Gaeumannomyces graminis/Liquid”, “(Early Leaf Spot) Conidia” for “(Take-All of Cereals) Mycelial fragments”, “are” for “were”

[7] = tested on: Mycosphaerella raminicola (Septoria tritici); test: Mycosphaerella graminicola / liquid culture (Septoria blotch); assay type: cell-based; settings: 200 ppm in the formulation, inhibition of growth determined photometrically, compared to untreated checks
Method: as §1, with “Mycosphaerella raminicola (Septoria tritici)/Liquid” for “Gaeumannomyces graminis/Liquid”, “(Septoria blotch) Conidia” for “(Take-All of Cereals) Mycelial fragments”, “are” for “were”, “4 to 5” for “4-5”

Measured: disease control

O=C(NC1CC2CCCC21)c1nc(Nc2cc(F)cc(F)c2)sc1Br (stereo not drawn) [I.w.2]
at least 80%: all assays above

Cc1sc(Nc2cc(F)cc(F)c2)nc1C(=O)NC1CC2CCCC21 (stereo not drawn) [I.w.3]
at least 80%: all assays above
